Data as given in PubChem BioAssay AID652272 (Drosophila RNAi Screening Center, 2013).
The deposit covers about 21,000 reagents; below is a random part of those that have a named target and a result. In the full data, 503 (2.4%) got an active call. 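Raw plate light values, not normalised; calls rest on replicate z-scores that were not deposited; hits include reporter decreases as well as increases.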 A plus sign joins genes that one reagent is predicted to hit. Not stated in the record: the amount of reagent, the time to read-out.

Aim: 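Finding fly genes that regulate Hedgehog signal transduction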 (primary screen)
System: Drosophila clone 8 (Cl8) cells
Reagent: long dsRNA against Drosophila genes
Read-out: 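Firefly light from a Hedgehog-responsive ptc promoter reporter and Renilla reference light, both read on a plate reader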
Direction: firefly Hh reporter signal: higher = more ptc reporter light; Renilla reference signal: higher = more Renilla control light
Call rule: 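Called a hit if the two-replicate mean z-score lies below -2 or above +3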
Meaning of the calls: active = hit: reporter lowered or raised; inactive = not a hit

The opening 3 records, to show the layout:
| firefly Hh reporter signal, replicate 1 | firefly Hh reporter signal, replicate 2 | firefly Hh reporter signal, replicate 3 | Renilla reference signal, replicate 1 | Renilla reference signal, replicate 2 | activity call | Target gene | dsRNA |
| --- | --- | --- | --- | --- | --- | --- | --- |
| 1.38e5 | 1.22e5 | – | 4885 | 4039 | inactive | CG31624 | DRSC02617 |
| 1.38e5 | 81944 | – | 5063 | 3265 | inactive | CG6656 | DRSC16085 |
| 52118 | 54914 | – | 5654 | 3655 | inactive | CG11349 | DRSC08179 |

Main list, from the start:
| firefly Hh reporter signal, replicate 1 | firefly Hh reporter signal, replicate 2 | firefly Hh reporter signal, replicate 3 | Renilla reference signal, replicate 1 | Renilla reference signal, replicate 2 | activity call | Target gene | dsRNA |
| --- | --- | --- | --- | --- | --- | --- | --- |
| 1.38e5 | 1.22e5 | – | 4885 | 4039 | inactive | CG31624 | DRSC02617 |
| 1.38e5 | 81944 | – | 5063 | 3265 | inactive | CG6656 | DRSC16085 |
| 52118 | 54914 | – | 5654 | 3655 | inactive | CG11349 | DRSC08179 |
| 69925 | 76051 | – | 2107 | 5602 | inactive | CG6429 | DRSC06986 |
| 1.57e5 | 1.27e5 | – | 6227 | 5164 | inactive | CG14642 | DRSC12228 |
| 41499 | 44765 | 46199 | 4092 | 2896 | inactive | Lsp2 | DRSC09841 |
| 39178 | 30868 | 61244 | 3370 | 3760 | inactive | Lsp2 | DRSC11216 |
| 1.61e5 | 1.37e5 | – | 5979 | 4162 | inactive | Prx3 | DRSC15883 |
| 85505 | 1.27e5 | – | 3385 | 3530 | inactive | CG1213 | DRSC12191 |
| 78832 | 33781 | – | 2450 | 3275 | inactive | CG13170 | DRSC06298 |
| 1.17e5 | 1.27e5 | – | 4736 | 5051 | inactive | Elba3 | DRSC00469 |
| 97543 | 50768 | – | 4185 | 2080 | inactive | CG3492 | DRSC04373 |
| 95605 | 50145 | – | 6352 | 1798 | inactive | CG14629 | DRSC18476 |
| 40358 | 44582 | – | 3804 | 3600 | inactive | CG10163 | DRSC09710 |
| 1.05e5 | 1.47e5 | – | 4389 | 4811 | inactive | Ccp84Ac | DRSC12588 |
| 1.37e5 | 1.41e5 | – | 4787 | 3709 | inactive | CG14851 | DRSC14975 |
| 1.33e5 | 81734 | – | 2849 | 2075 | inactive | CG40486 | DRSC20619 |
| 3.09e5 | – | – | 6539 | – | inactive | hpRNA:CR32207 | DRSC09616 |
| 89189 | 1.05e5 | – | 3638 | 4227 | inactive | Tina-1 | DRSC04317 |
| 5.91e5 | 1.17e5 | – | 5396 | 5396 | inactive | CG13319 | DRSC06356 |
| 61003 | 2.18e5 | – | 14092 | 5019 | inactive | CG34300 | DRSC13977 |
| 5.29e5 | 2.18e5 | 90416 | 4504 | 4832 | inactive | CG34384 | DRSC12642 |
| 2.70e5 | – | – | 5205 | – | inactive | CG34384 | DRSC12644 |
| 52497 | 97095 | – | 2225 | 2785 | inactive | CG34384 | DRSC14855 |
| 94875 | 1.30e5 | – | 3146 | 4226 | inactive | CG34384 | DRSC15444 |
| 80885 | 1.27e5 | – | 3008 | 3612 | inactive | CG34384 | DRSC16575 |
| 5.68e5 | 91498 | – | 3379 | 3379 | inactive | CG34283 | DRSC13313 |
| 1.16e5 | – | – | 6659 | 4186 | inactive | CG13069 | DRSC09952 |
| 63828 | 45155 | – | 1520 | 4008 | inactive | CG1602 | DRSC06601 |
| 54896 | 29344 | – | 2405 | 1456 | inactive | shrb | DRSC07061 |
| 1.02e5 | 1.96e5 | – | 2940 | 9130 | inactive | CG31810 | DRSC01560 |
| 1.22e5 | 1.66e5 | – | 5147 | 4752 | inactive | Ir85a | DRSC14382 |
| 1.66e5 | 89840 | – | 4449 | 7872 | inactive | CG7755 | DRSC07040 |
| 89641 | 1.26e5 | – | 552 | 2979 | inactive | AMPKalpha | DRSC18714 |
| 61192 | 44848 | – | 2778 | 1577 | inactive | CG10949 | DRSC02112 |
| 1.06e5 | 3.12e5 | – | 4330 | 11425 | inactive | CG3598 | DRSC18471 |
| 52545 | 48620 | – | 2755 | 2464 | inactive | Patr-1 | DRSC14159 |
| 1.17e5 | 1.53e5 | – | 2873 | 6688 | inactive | CG33459 | DRSC05615 |
| 6.32e5 | 91977 | – | 32741 | 1576 | inactive | Ada2a + Polr2D | DRSC16206 |
